Measured values: publication PMC8373943
No constants are given. Whether binding was seen depends on the method and setting. Binding seen in cells or lysates may run through a third protein.

Biological target: H3K9me3 peptide (first 17 amino acids from histone H3, trimethylated on lysine 9, followed by two glycines and a biotinylated lysine) (UniProt P68431)
Experiment: pull-down; biotinylated histone H3 peptide on Dynabeads MyOne Streptavidin C1; 500 ug nuclear extract, 150 mM NaCl, 50 mM Tris pH 8, 2% NP40, 0.5 mM DTT, 10 uM ZnCl2, 3 h 4 °C; washes with 350 mM NaCl; western blot; only the target purified

- binding: no binding
B1: FLYWCH1 in crude nuclear extracts (protein, UniProt Q4VC44 1-716)
chain: MPLPEPSEQEGESVKAGQEPSPKPGTDVIPAAPRKPREFSKLVLLTASDQDEDGVGSKPQEVHCVLSLEMAGPATLASTLQILPVEEQGGVVQPALEMPEQKCSKLDAAAPQSLEFLRTPFGGRLLVLESFLYKQEKAVGDKVYWKCRQHAELGCRGRAITRGLRATVMRGHCHAPDEQGLEARRQREKLPSLALPEGLGEPQGPEGPGGRVEEPLEGVGPWQCPEEPEPTPGLVLSKPALEEEEAPRALSLLSLPPKKRSILGLGQARPLEFLRTCYGGSFLVHESFLYKREKAVGDKVYWTCRDHALHGCRSRAITQGQRVTVMRGHCHQPDMEGLEARRQQEKAVETLQAGQDGPGSQVDTLLRGVDSLLYRRGPGPLTLTRPRPRKRAKVEDQELPTQPEAPDEHQDMDADPGGPEFLKTPLGGSFLVYESFLYRREKAAGEKVYWTCRDQARMGCRSRAITQGRRVTVMRGHCHPPDLGGLEALRQREKRPNTAQRGSPGGPEFLKTPLGGSFLVYESFLYRREKAAGEKVYWTCRDQARMGCRSRAITQGRRVMVMRRHCHPPDLGGLEALRQREHFPNLAQWDSPDPLRPLEFLRTSLGGRFLVHESFLYRKEKAAGEKVYWMCRDQARLGCRSRAITQGHRIMVMRSHCHQPDLAGLEALRQRERLPTTAQQEDPEKIQVQLCFKTCSPESQQIYGDIKDVRLDGESQ
